# Reference: the supplement of paper PMC8728848
# The list shows a part of the results.
# B1: GroEL (Clostridium difficile), Q18CT5 (protein)
# chain: MAKEIKFSEETRRALEAGVNKLADTVKVTLGPKGRNVILDKKFGSPLITNDGVTIAKEIELEDRFENMGAQLVKEVATKTNDVAGDGTTTATVLAQAIIREGLKNVTAGANPILLRKGIQKAVTVAVEELKNQSRIVETQEAISQVASISAGDEEVGKLIAEAMEIVGKDGVITVEESQTMNTELDAVEGMQFDRGFVSAYMVTDVDKMEAVLNDPYILITDKKISNIQELLPVLEQIVQQGKKLLIIAEDVEGEALSTLVVNKLRGTFDVVAVKAPGFGDRRKEMLQDIAILTGAQVISEELGYDLKEADLSMLGRASSVKVTKESTTIVDGSGDKKAIEDRVTQIKHQVEQTTSDFDREKLMERLAKLAGGVAVVKVGAATEVELKERKLRIEDALNATRAAVEEGIVAGGGTAFVSVIPAIGTLIESLEGEVKLGAQIVKKALEEPLRQIAINAGLEGAVIVQNVVNSEAETGFDALNEKYVNMIEAGIVDPTKVSRSALQNAASIASTFLTTEAAVADLPEKEDAGMPGMGGGMPGMM
# Columns and labels:
# Assay in all cases: glycan array binding signal (z-score within array); higher = stronger binding
# Settings in all cases: glycan notation: IUPAC condensed, linker removed
# Fuc(a1-2)Gal = biological target: Fuc(a1-2)Gal
# How it was run: (§1)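 Glycan array binding is given as a within-array Z-score, which can be read as non-binding when negative. The arrays, 3228 of them, came from the Consortium for Functional Glycomics database and were retained only where the protein sequence was available. Z-scores were averaged across arrays of the same protein sequence at different concentrations or buffers and across linkers.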
# Fuc(a1-2)Gal(b1-3)GalNAc = biological target: Fuc(a1-2)Gal(b1-3)GalNAc
# How it was run: as §1
# [1] = biological target: Fuc(a1-2)Gal(b1-3)GalNAc(a1-3)[Fuc(a1-2)]Gal(b1-4)Glc
# How it was run: as §1
# [2] = biological target: Fuc(a1-2)Gal(b1-3)GalNAc(a1-3)[Fuc(a1-2)]Gal(b1-4)GlcNAc
# How it was run: as §1
# [3] = biological target: Fuc(a1-2)Gal(b1-3)GalNAc(b1-3)Gal
# How it was run: as §1
# [4] = biological target: Fuc(a1-2)Gal(b1-3)GalNAc(b1-3)Gal(a1-4)Gal(b1-4)Glc
# How it was run: as §1
# [5] = biological target: Fuc(a1-2)Gal(b1-3)GalNAc(b1-4)[Neu5Ac(a2-3)]Gal(b1-4)Glc
# How it was run: as §1
# Fuc(a1-2)Gal(b1-3)GlcNAc = biological target: Fuc(a1-2)Gal(b1-3)GlcNAc
# How it was run: as §1
# [6] = biological target: Fuc(a1-2)Gal(b1-3)GlcNAc(b1-2)Man(a1-3)[Fuc(a1-2)Gal(b1-3)GlcNAc(b1-2)Man(a1-6)]Man(b1-4)GlcNAc(b1-4)GlcNAc
# How it was run: as §1
# [7] = biological target: Fuc(a1-2)Gal(b1-3)GlcNAc(b1-2)Man(a1-3)[Fuc(a1-2)Gal(b1-3)GlcNAc(b1-2)Man(a1-6)]Man(b1-4)GlcNAc(b1-4)[Fuc(a1-6)]GlcNAc
# How it was run: as §1
# [8] = biological target: Fuc(a1-2)Gal(b1-3)GlcNAc(b1-3)Gal(b1-4)Glc
# How it was run: as §1
# [9] = biological target: Fuc(a1-2)Gal(b1-3)GlcNAc(b1-3)GalNAc
# How it was run: as §1
# [10] = biological target: Fuc(a1-2)Gal(b1-3)GlcNAc(b1-3)[Fuc(a1-2)Gal(b1-3)GlcNAc(b1-6)]GalNAc
# How it was run: as §1
# [11] = biological target: Fuc(a1-2)Gal(b1-3)GlcNAc(b1-3)[Gal(b1-4)GlcNAc(b1-6)]Gal(b1-4)Glc
# How it was run: as §1
# [12] = biological target: Fuc(a1-2)Gal(b1-3)GlcNAc(b1-3)[Neu5Ac(a2-6)Gal(b1-4)GlcNAc(b1-6)]Gal(b1-4)Glc
# How it was run: as §1
# [13] = biological target: Fuc(a1-2)Gal(b1-3)GlcNAc6S
# How it was run: as §1
# [14] = biological target: Fuc(a1-2)Gal(b1-3)[Fuc(a1-4)]GlcNAc
# How it was run: as §1
# [15] = biological target: Fuc(a1-2)Gal(b1-3)[Fuc(a1-4)]GlcNAc(b1-2)Man(a1-3)[Fuc(a1-2)Gal(b1-3)[Fuc(a1-4)]GlcNAc(b1-2)Man(a1-3)]Man(b1-4)GlcNAc(b1-4)GlcNAc
# How it was run: as §1
# [16] = biological target: Fuc(a1-2)Gal(b1-3)[Fuc(a1-4)]GlcNAc(b1-2)Man(a1-3)[Fuc(a1-2)Gal(b1-3)[Fuc(a1-4)]GlcNAc(b1-2)Man(a1-6)]Man(b1-4)GlcNAc(b1-4)[Fuc(a1-6)]GlcNAc(b1-4)[Fuc(a1-6)]GlcNAc
# How it was run: as §1
# [17] = biological target: Fuc(a1-2)Gal(b1-3)[Fuc(a1-4)]GlcNAc(b1-3)[Fuc(a1-3)[Gal(b1-4)]GlcNAc(b1-6)]Gal(b1-4)Glc
# How it was run: as §1
# [18] = biological target: Fuc(a1-2)Gal(b1-3)[Fuc(a1-4)]GlcNAc(b1-3)[Gal(b1-4)GlcNAc(b1-6)]Gal(b1-4)Glc
# How it was run: as §1
# Fuc(a1-2)Gal(b1-4)Glc = biological target: Fuc(a1-2)Gal(b1-4)Glc
# How it was run: as §1
# Fuc(a1-2)Gal(b1-4)Glc6S = biological target: Fuc(a1-2)Gal(b1-4)Glc6S
# How it was run: as §1
# Fuc(a1-2)Gal(b1-4)GlcNAc = biological target: Fuc(a1-2)Gal(b1-4)GlcNAc
# How it was run: as §1
# [19] = biological target: Fuc(a1-2)Gal(b1-4)GlcNAc(b1-2)Man
# How it was run: as §1
# [20] = biological target: Fuc(a1-2)Gal(b1-4)GlcNAc(b1-2)Man(a1-3)[Fuc(a1-2)Gal(b1-4)GlcNAc(b1-2)Man(a1-6)]Man(b1-4)GlcNAc(b1-4)GlcNAc
# How it was run: as §1
# [21] = biological target: Fuc(a1-2)Gal(b1-4)GlcNAc(b1-2)Man(a1-3)[Fuc(a1-2)Gal(b1-4)GlcNAc(b1-2)Man(a1-6)]Man(b1-4)GlcNAc(b1-4)[Fuc(a1-6)]GlcNAc
# How it was run: as §1
# [22] = biological target: Fuc(a1-2)Gal(b1-4)GlcNAc(b1-2)[Fuc(a1-2)Gal(b1-4)GlcNAc(b1-4)]Man(a1-3)[Fuc(a1-2)Gal(b1-4)GlcNAc(b1-2)Man(a1-6)]Man(b1-4)GlcNAc(b1-4)GlcNAc
# How it was run: as §1
# [23] = biological target: Fuc(a1-2)Gal(b1-4)GlcNAc(b1-3)Gal(b1-4)GlcNAc
# How it was run: as §1
# [24] = biological target: Fuc(a1-2)Gal(b1-4)GlcNAc(b1-3)Gal(b1-4)GlcNAc(b1-2)Man(a1-3)[Fuc(a1-2)Gal(b1-4)GlcNAc(b1-3)Gal(b1-4)GlcNAc(b1-2)Man(a1-6)]Man(b1-4)GlcNAc(b1-4)GlcNAc
# How it was run: as §1
binder,measurement,setting,value
B1,glycan array binding signal (z-score),Fuc(a1-2)Gal,0.721
same,glycan array binding signal (z-score),Fuc(a1-2)Gal(b1-3)GalNAc,0.484
same,glycan array binding signal (z-score),[1],1.24
same,glycan array binding signal (z-score),[2],-0.541
same,glycan array binding signal (z-score),[3],-0.678
same,glycan array binding signal (z-score),[4],1.31
same,glycan array binding signal (z-score),[5],0.152
same,glycan array binding signal (z-score),Fuc(a1-2)Gal(b1-3)GlcNAc,0.168
same,glycan array binding signal (z-score),[6],3.73
same,glycan array binding signal (z-score),[7],-0.071
same,glycan array binding signal (z-score),[8],0.433
same,glycan array binding signal (z-score),[9],-0.274
same,glycan array binding signal (z-score),[10],0.68
same,glycan array binding signal (z-score),[11],-0.885
same,glycan array binding signal (z-score),[12],-0.133
same,glycan array binding signal (z-score),[13],-1.02
same,glycan array binding signal (z-score),[14],0.147
same,glycan array binding signal (z-score),[15],0.895
same,glycan array binding signal (z-score),[16],1.04
same,glycan array binding signal (z-score),[17],0.284
same,glycan array binding signal (z-score),[18],0.461
same,glycan array binding signal (z-score),Fuc(a1-2)Gal(b1-4)Glc,2.35
same,glycan array binding signal (z-score),Fuc(a1-2)Gal(b1-4)Glc6S,-0.549
same,glycan array binding signal (z-score),Fuc(a1-2)Gal(b1-4)GlcNAc,-0.198
same,glycan array binding signal (z-score),[19],0.115
same,glycan array binding signal (z-score),[20],2.28
same,glycan array binding signal (z-score),[21],0.181
same,glycan array binding signal (z-score),[22],-1.45
same,glycan array binding signal (z-score),[23],-0.499
same,glycan array binding signal (z-score),[24],1.19
